Measurements from US20140294819A1 (NVIP, published 2014).

Molecular target: complement C1q
Test: C1q ELISA, antibody captured on caCD20 peptide

B1: chimeric mouse-canine RA2, HCB isotype (antibody)
heavy: QVQLKQSGPGLVPPSQSLSITCTVSGFSLTNYGVHWVRQSPGKGLEWLGVIWSGGTTDYNAAFISRLSISKDNSKSQVFFKMNSLQADDTAIYYCARGPRKFYYYGMDYWGQGTSVTVSSASTTAPSVFPLAPSCGSTSGSTVALACLVSGYFPEPVTVSWNSGSLTSGVHTFPSVLQSSGLYSLSSMVTVPSSRWPSETFTCNVAHPASKTKVDKPVPKRENGRVPRPPDCPKCPAPEMLGGPSVFIFPPKPKDTLLIARTPEVTCVVVDLDPEDPEVQISWFVDGKQMQTAKTQPREEQFNGTYRVVSVLPIGHQDWLKGKQFTCKVNNKALPSPIERTISKARGQAHQPSVYVLPPSREELSKNTVSLTCLIKDFFPPDIDVEWQSNGQQEPESKYRTTPPQLDEDGSYFLYSKLSVDKSRWQRGDTFICAVMHEALHNHYTQESLSHSPGK
light: DVLMTQTPLSLPVSLGDQASISCRSSQSIVHSNGNTYLEWYLQKPGQSPKLLIYKVSNRFSGVPDRFSGSGSGTDFTLKISRVEAGDLGVYYCFQGLHVPLTFGAGTRLELKRNDAQPAVYLFQPSPDQLHTGSASVVCLLNSFYPKDINVKWKVDGVIQDTGIQESVTEQDKDSTYSLSSTLTMSSTEYLSHELYSCEITHKSLPSTLIKSFQRSECQRVD
notes: also called chiRA2-B; chimeric RA2
binding: binds

B2: caninised RA2, HCC isotype (antibody)
heavy: EVQLVQSGGGLVKPTESLTISCVVSGFSLTNYGVHWVRQSPGKGLEWLGVIWSGGTTDYNAAFISRLSISKDNSKSTVFLRMNSLRADDTAIYYCARGPRKFYYYGMDYWGQGTSVTVSSASTTAPSVFPLAPSCGSQSGSTVALACLVSGYIPEPVTVSWNSVSLTSGVHTFPSVLQSSGLYSLSSMVTVPSSRWPSETFTCNVAHPATNTKVDKPVAKECECKCNCNNCPCPGCGLLGGPSVFIFPPKPKDILVTARTPTVTCVVVDLDPENPEVQISWFVDSKQVQTANTQPREEQSNGTYRVVSVLPIGHQDWLSGKQFKCKVNNKALPSPIEEIISKTPGQAHQPNVYVLPPSRDEMSKNTVTLTCLVKDFFPPEIDVEWQSNGQQEPESKYRMTPPQLDEDGSYFLYSKLSVDKSRWQRGDTFICAVMHEALHNHYTQISLSHSPGK
light: B1 light with V2I, L3V, P12S, L15Q, G16E, D17E, Q18E, L88A, R108K
notes: See note of m19; also called caRA2-C
binding: binds

B3: caninised RA2, HCB isotype (antibody)
heavy: EVQLVQSGGGLVKPTESLTISCVVSGFSLTNYGVHWVRQSPGKGLEWLGVIWSGGTTDYNAAFISRLSISKDNSKSTVFLRMNSLRADDTAIYYCARGPRKFYYYGMDYWGQGTSVTVSSASTTAPSVFPLAPSCGSTSGSTVALACLVSGYFPEPVTVSWNSGSLTSGVHTFPSVLQSSGLYSLSSMVTVPSSRWPSETFTCNVAHPASKTKVDKPVPKRENGRVPRPPDCPKCPAPEMLGGPSVFIFPPKPKDTLLIARTPEVTCVVVDLDPEDPEVQISWFVDGKQMQTAKTQPREEQFNGTYRVVSVLPIGHQDWLKGKQFTCKVNNKALPSPIERTISKARGQAHQPSVYVLPPSREELSKNTVSLTCLIKDFFPPDIDVEWQSNGQQEPESKYRTTPPQLDEDGSYFLYSKLSVDKSRWQRGDTFICAVMHEALHNHYTQESLSHSPGK
light: B1 light with V2I, L3V, P12S, L15Q, G16E, D17E, Q18E, L88A, R108K
notes: also called caRA2-B
binding: binds

B4: chimeric mouse-canine RF2, HCB isotype (antibody)
heavy: B1 heavy with V24I, N31S, K43W, T56S, T57I, F80I, Y105F
light: B1 light with L3V, S28N, L38V, G86E, L97S, R108K
notes: also called chiRF2-B; chimeric RF2
binding: binds

More lines, now with the values ahead:

binding: binds
B5: caninised RF2, HCC isotype (antibody)
heavy: B2 heavy with V24I, N31S, T56S, T57I, L80I, Y105F
light: DIVMTQTPLSLSVSQEEEASISCRSSQNIVHSNGNTYVEWYLQKPGQSPKLLIYKVSNRFSGVPDRFSGSGSGTDFTLKISRVEAEDAGVYYCFQGSHVPLTFGAGTKLELKRNDAQPAVYLFQPSPDQLHTGSASVVCLLNSFYPKDINVKWKVDGVIQDTGIQESVTEQDKDSTYSLSSTLTMSSTEYLSHELYSCEITHKSLPSTLIKSFQRSECQRVD
notes: also called caRF2-C

binding: binds
B6: caninised RF2, HCB isotype (antibody)
heavy: B3 heavy with V24I, N31S, T56S, T57I, L80I, Y105F
light: B5 light
notes: also called caRF2-B

Changes are numbered by the printed parent chain. No constants are given. Whether binding was seen depends on the method and setting. Binding calls can cover weak binding; strength is not graded here. Each block holds one binder with its values, some of them ahead of it.
